No constants are given. Whether binding was seen depends on the method and setting. In cells and extracts the contact can be indirect. These calls come from enrichment with a bait or labelling near it, and not all partners need be listed. For some assays here: No binding means not detected with the bait.
Legend:
[1] = target: Hsp70 (human (endogenous in T24)); experiment: affinity purification with mass spectrometry; co-immunoprecipitation with Hsp70 antibody on Dynabeads Protein G from lysate of T24 cells treated with VER155008 for 48 h; 10 min incubation; SDS-PAGE, silver stain, one band excised and identified by LC-MS/MS
[2] = target: Hsp70 (human (endogenous in T24)); experiment: condition: only lysate of cells not treated with VER155008 (-VER, DMSO); affinity purification with mass spectrometry; co-immunoprecipitation with Hsp70 antibody on Dynabeads Protein G from lysate of T24 cells treated with DMSO (no VER155008) for 48 h; 10 min incubation; SDS-PAGE, silver stain; band judged by eye on the gel

B1: keratin 9 (protein, UniProt P35527 1-623)
chain: MSCRQFSSSYLSRSGGGGGGGLGSGGSIRSSYSRFSSSGGGGGGGRFSSSSGYGGGSSRVCGRGGGGSFGYSYGGGSGGGFSASSLGGGFGGGSRGFGGASGGGYSSSGGFGGGFGGGSGGGFGGGYGSGFGGFGGFGGGAGGGDGGILTANEKSTMQELNSRLASYLDKVQALEEANNDLENKIQDWYDKKGPAAIQKNYSPYYNTIDDLKDQIVDLTVGNNKTLLDIDNTRMTLDDFRIKFEMEQNLRQGVDADINGLRQVLDNLTMEKSDLEMQYETLQEELMALKKNHKEEMSQLTGQNSGDVNVEINVAPGKDLTKTLNDMRQEYEQLIAKNRKDIENQYETQITQIEHEVSSSGQEVQSSAKEVTQLRHGVQELEIELQSQLSKKAALEKSLEDTKNRYCGQLQMIQEQISNLEAQITDVRQEIECQNQEYSLLLSIKMRLEKEIETYHNLLEGGQEDFESSGAGKIGLGGRGGSGGSYGRGSRGGSGGSYGGGGSGGGYGGGSGSRGGSGGSYGGGSGSGGGSGGGYGGGSGGGHSGGSGGGHSGGSGGNYGGGSGSGGGSGGGYGGGSGSRGGSGGSHGGGSGFGGESGGSYGGGEEASGSGGGYGGGSGKSSHS
B1 was tested, and the binding [1] was “binds” and the binding [2] was “no binding”.

From paper PMC6111075
